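Enzyme assay of histidyl-tRNA synthetase; the read-out is not stated. Target: Histidine-tRNA ligase, Leishmania infantum (UniProt A4I591). Concentration: 30 µM. Higher reads as stronger inhibition (inferred: compounds with an IC50 in retests scored well above the rest). The assay is labelled LdHisRS but filed under L. infantum. About 69,000 compounds were tested under these conditions; 0.6% (about 410) showed 50% or more at least once.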

Sequences of proteins named here, by UniProt entry; tags and fusion partners are left off. Residues count along the entry.
UniProt A4I591, 1-473: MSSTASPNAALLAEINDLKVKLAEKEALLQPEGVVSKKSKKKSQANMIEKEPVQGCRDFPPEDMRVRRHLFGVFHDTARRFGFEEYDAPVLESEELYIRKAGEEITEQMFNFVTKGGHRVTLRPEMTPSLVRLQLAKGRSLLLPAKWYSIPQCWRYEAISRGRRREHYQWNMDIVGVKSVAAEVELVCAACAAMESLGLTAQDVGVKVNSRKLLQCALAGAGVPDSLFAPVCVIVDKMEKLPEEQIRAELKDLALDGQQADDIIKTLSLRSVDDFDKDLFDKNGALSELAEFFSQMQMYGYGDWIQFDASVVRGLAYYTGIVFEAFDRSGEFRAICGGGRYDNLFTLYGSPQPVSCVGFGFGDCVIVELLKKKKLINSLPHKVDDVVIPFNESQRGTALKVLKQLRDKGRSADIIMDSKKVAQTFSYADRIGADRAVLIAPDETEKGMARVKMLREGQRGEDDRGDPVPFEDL

Values are the deposited “Percent Effect”, in %.
The controls that fix the scale are not given in the record; negative values are as filed.
This is an unselected part of the compounds tested.

Compound,percent effect
CC(Oc1ccc(F)cc1F)C(=O)N1CCC2(CCCO2)CC1 (stereo not drawn),20
COc1ccc(CC(=O)N2CC(=O)NCC(C)(C)C2)cc1,16.49
CS(=O)(=O)c1cnc(CC2CC2)nc1C1CCCNC1 (stereo not drawn),-36.47
CC(=O)N[C@@H]1CN(C(=O)c2ccoc2)C[C@H]1c1ccc(C)cc1,-2.667
Cc1cc(Cn2cc(C(C)Cc3ccc4c(c3)OCO4)nn2)n[nH]1 (stereo not drawn),19.17
CS(=O)(=O)N1CCC2(CC1)CC(CC(=O)NCC1CC1)c1ccccc12 (stereo not drawn),7.965
CN(C)C[C@@H]1C[C@@H]2CN(C(=O)Cc3cccs3)CC[C@@H]2N1C,6.422
NC(=O)C1CCCN(C(=O)c2cccc(OCc3cscn3)c2)C1 (stereo not drawn),19.44
c1c[nH]c2nc(C3CCNCC3)nc-2c1,8.276
CSC(C)C(=O)NCc1ccc(-n2cncn2)nc1 (stereo not drawn),4.959
O=C(c1cccnc1)N1C[C@@H]2CC[C@H](C1)N(Cc1ccc(F)cc1Cl)C2,7.2
Cc1nn(C)c2c(N3CCN(C(=O)C(C)C)CC3)ncnc12,17.24
Cc1ccc(CN2Cc3c(C(=O)N4CCN(C)CC4)nn(C)c3C2)s1,19.35
Cc1ncc(CN2CCN(C(=O)N(C)C)[C@@H]3CS(=O)(=O)C[C@@H]32)cn1,13.04
Cc1cc(C)nc(CNC(=O)C(c2cccnc2)N2CCOCC2)n1 (stereo not drawn),9.375
O=C(C1CC1)N1CCCC(C2=Nc3ccccc3S(=O)(=O)N2)C1 (stereo not drawn),8.392
Cc1nc[nH]c1-c1nccn1CCN1CCOC1=O,16.67
Cc1cc(C)n(Cc2ccc(C(=O)N3CCOCC3(C)C)cc2)n1,4.286
Cc1nc(C2CCN(C(=O)c3ccnn3C)CC2)c2sccn12,24.74
Cc1cccc(CNC(Cn2cncn2)c2ccccc2)c1C (stereo not drawn),10.96
COc1cccc(C)c1C(=O)N1C[C@@H](CN(C)C)[C@@H](CO)C1,17.92
Cc1nsc(N2CCCN(c3nc(C4CC4)ns3)CC2)n1,15.38
COCC(=O)N1CCC2(CC1)NC(=O)[C@H]1CN(C(=O)N(C)C)C[C@H]12,25.24
Cc1nn(C)cc1-c1cc(C(=O)N2CCc3ncc(Cl)cc3C2)on1,10.14
CC(=O)N1CCN(C(=O)Cn2ccc3c(Cl)cccc32)CC1,25.97
COc1ccccc1CC(=O)N(C)Cc1cc(C)on1,4.145
CCC1=N[C@@]2(CC[C@@H]3CN(CC(=O)N(C)C)C[C@@H]32)C(=O)N1CC(C)C,10.26
N#Cc1ccc(N2CC3(CCN(c4nccs4)C3)C2)nc1,29.31
CNC(=O)N1C[C@H]2C[C@H](C(=O)NCc3cccnc3)[C@@H](C1)O2,16.36
CCc1nc(-c2ccc(NC(=O)N3CCCC3)cc2)no1,15.79
N#Cc1cccc(OCCN2CCC(C(=O)N3CCOCC3)CC2)c1,12.82
CSCC(=O)N1CCCC(CCC(=O)N(C)CCc2ccccn2)C1 (stereo not drawn),2.655
COc1cccc(Cl)c1C(C(=O)O)N1CCC(Cn2cccn2)CC1 (stereo not drawn),11.39
CCCn1cc(C(=O)NC(C(=O)O)c2ccccc2C(F)(F)F)c(C)n1 (stereo not drawn),5.128
CCc1ccc(CN2CCC3(CC2)CN(c2cnn(C)c2)C(=O)CO3)o1,25.64
CCC(C)NC(=O)CCNC(=O)Nc1ccc(-n2cncn2)c(F)c1 (stereo not drawn),3.67
O=C(CNC(=O)C1CCCC1)NCC(O)c1ccc2ccccc2c1 (stereo not drawn),10.96
Cc1cnc(CNC(=O)C2CCOc3ccccc3C2)cn1 (stereo not drawn),20.78
Cc1ccc(CNCCOc2ccc(S(C)(=O)=O)cc2)cc1,-3.81
O=C(O)[C@@H]1CN(C(=O)CN2Cc3ccccc3C2)C[C@H]1c1ccncc1,7.965
Cc1cccc(C)c1OCCNC(=O)C[S+]([O-])C1CCCC1 (stereo not drawn),5.051
Cc1cnc(C(=O)N2C[C@H]3CC[C@@H]2CN(c2cnccn2)C3)cn1,18.57
CCC(NC(=O)NCc1cccc(N(C)C)n1)c1nccs1 (stereo not drawn),17.5
Cc1nc2nc(C)c3c(=O)n(-c4ccn[nH]4)ccc3n2n1,1.01
CSc1ccc(NC(=O)Cc2cccc(O)c2)nc1,17.6
O=C(c1ccncc1F)N1CCN(CC2CC2)c2ncccc2C1,-5.825
O=C([C@@H]1CCO[C@@H]2CCN(Cc3cccs3)C[C@H]21)N1CCCCO1,10.26
Cn1nnc2c1C(COCC1CC1)CN(C(=O)Cc1cccs1)C2 (stereo not drawn),20.51
CCCC(O)CN1CCC(=O)N(CCOC)Cc2cc3c(cc21)OCO3 (stereo not drawn),8.163
COc1cccc(N2CCN(CC(O)c3cc(C)ccc3C)CC2)c1 (stereo not drawn),5.714
CS(=O)(=O)NC(=O)c1cc(Cl)c2c(c1)OCCCO2,18.03
c1cc(-c2cscn2)cc(N2CCC(NCCc3cccs3)CC2)c1,18.99
Cc1ncc2c(n1)CCCC2NC(=O)c1ccccc1Cn1cncn1 (stereo not drawn),28.95
CN1CCC(c2nnc(CN3CCCC3)n2C2CC2)CC1,15.15
Cc1oc(C)c(C(=O)NCc2ccccn2)c1C,16.8
CN1C(=O)C2(CCN(S(C)(=O)=O)CC2)c2cc(F)ccc21,22
O=C(C1CCCC1)N1CCCC1c1nnc2n1CCCCC2 (stereo not drawn),17.65
CN(C)[C@@H]1CCN(C(=O)c2ccsc2)[C@H]1Cc1cccnc1,0
COCCN1CCCC12CCN(Cc1cccnc1OC)CC2,-1.724
CN1CCCC2(CC1)CCN(C(=O)CCc1ccccc1F)CC2,35.48
Cc1nnc2ccc(N3CCN(Cc4nccn4C)CC3)nn12,36.99
CCCC(=O)NC(Cc1ccc(C)cc1)c1ccccn1 (stereo not drawn),8.065
COc1ccc(CN2CCCCCC2c2cccs2)c(OC)c1 (stereo not drawn),2.247
Cc1cc(NC(=O)CN2CCCC(Cn3cncn3)C2)no1 (stereo not drawn),28.57
COc1ncc(-c2cc(-c3ccn(C)c3)nc(N)c2C#N)cn1,35.42
COCc1ccccc1C(=O)N1CCCC(n2nc(C)cc2C)C1 (stereo not drawn),5.618
Cc1cccc(-c2nccnc2C2CCN(C)CC2)c1C,5.755
O=C(C1CCOCC1)N1CCC(O)(Cn2ccc3ccncc32)CC1,2
O=C1CCCN1Cc1nnc2n1CCCN(Cc1ccco1)C2,9.434
CCOc1ccc(NC(=O)N(CCN(C)C)C(C)c2ccncc2)cc1 (stereo not drawn),10.53
COc1nccc(N2CC[C@H](N3CCOCC3)[C@H](CCCO)C2)c1C#N,1.333
CCCOc1ccccc1CCCNc1ncnc2oc(C)nc12,20.16
COc1ccc(CNC(=O)NC2CCN(CC(F)F)CC2)cc1C,16.98
CCn1cc(CN2C[C@@H]3CCCN3C[C@@H]2CCSC)c(C)n1,8.029
CCCOc1ccc(CNC(=O)N2CCC(C(N)=O)C2)cc1 (stereo not drawn),-19.1
CCS(=O)(=O)CCSc1ccc(Cl)cc1,18.09
Cc1c(Cn2ccnc2-c2cc(CN(C)C)cs2)cnn1C,11.5
CO[C@@H]1CCC[C@@H](NC(=O)CCCn2cncn2)[C@H]1O,13.04
Cc1nsc(NCc2ccc(S(=O)(=O)N(C)C(C)C)cc2)n1,18.42
Cc1cccc(S(=O)(=O)N2Cc3nccn3CC(CN(C)C)C2)c1 (stereo not drawn),5.941
Cn1cnc2c1C(COCC1CC1)CN(C(=O)c1ccsc1)C2 (stereo not drawn),11.5
COC(=O)c1cccn1C1CCN(C(=O)c2cc(F)ccc2C)CC1,3.478
CNc1oc(-c2cc(S(=O)(=O)N3CCCC3)c(C)o2)nc1C#N,13.16
O=C(N1CCCC1)N1CCn2c(Cn3cccn3)cnc2C1,-5.882
O=C(NCc1cc(=O)n2c(n1)CN(CC1CCOC1)CCC2)C1CC1 (stereo not drawn),7.619
COCCNC(=O)Nc1ccn(-c2cccc(C(F)(F)F)c2)n1,19.33
FC(F)Sc1ccc(NCc2nnc(C3CC3)o2)cc1,1.01

10 of the entries, repeated:

Cn1cnc2c1C(COCC1CC1)CN(C(=O)c1ccsc1)C2 (stereo not drawn) read 11.5%.
O=C(N1CCCC1)N1CCn2c(Cn3cccn3)cnc2C1 read -5.882%.
CN(C)C[C@@H]1C[C@@H]2CN(C(=O)Cc3cccs3)CC[C@@H]2N1C read 6.422%.
Cc1cccc(C)c1OCCNC(=O)C[S+]([O-])C1CCCC1 (stereo not drawn) read 5.051%.
Cc1nn(C)cc1-c1cc(C(=O)N2CCc3ncc(Cl)cc3C2)on1 read 10.14%.
Cc1ncc(CN2CCN(C(=O)N(C)C)[C@@H]3CS(=O)(=O)C[C@@H]32)cn1 read 13.04%.
CCCOc1ccccc1CCCNc1ncnc2oc(C)nc12 read 20.16%.
CCCC(=O)NC(Cc1ccc(C)cc1)c1ccccn1 (stereo not drawn) read 8.065%.
CCc1nc(-c2ccc(NC(=O)N3CCCC3)cc2)no1 read 15.79%.
N#Cc1cccc(OCCN2CCC(C(=O)N3CCOCC3)CC2)c1 read 12.82%.

From ChEMBL document CHEMBL3988442, “University of Dundee, Small-Polar-MMV Screening Library” (2021).